# Measured values published in PubChem BioAssay AID248 (DTP/NCI, 2004).
# The list is a part of this screen's results and no random one: it is rich in T/C values a quarter to a half above the control, in often repeated tests (any T/C) and in doses without a T/C. Other doses and runs of a compound stand elsewhere. T/C: endpoint of the treated group in % of that of the vehicle group. Some entries give survivors of the animals treated and no T/C: the source files T/C as zero there, which appears to mark a toxic dose or a test without result, not a measured value. Some doses without a T/C left all or most animals alive at the check, yet need not have been tolerated: the source hardly ever lists a survival T/C far under the control, and the zero likely stands for such cases as well. Counts of survivors are from the toxicity check (mostly the fifth day) where no day follows; animals may have died later. Schedule codes are those of the source, taken here to give the interval after Q, in days (D) or hours (H), and the number of doses after X. Some entries were tested several times; the results are listed from low to high. For survival time, this PubChem deposit counts one and a half times the control or more as active, and values a quarter to a half above the control carry no call in these data; other NCI protocols may use other cut-offs. Some T/C values are followed by the survivors on the day toxicity was checked, most often the fifth; where none is given, no animal had died by that day.
# Tested on: L1210 leukemia ip in BDF1 mice, survival T/C
# Assay: NCI In Vivo Anticancer Drug Screen. Data for tumor model L1210 Leukemia (intraperitoneal) in B6D2F1 (BDF1) mice
# Conditions: T/C endpoint: mean survival time, higher T/C = longer survival
# [1] = dose: 37.5 mg/kg/injection, schedule: Q01DX001 (ip), vehicle: saline
# [2] = dose: 400.0 mg/kg/injection, schedule: Q01DX001 (ip), vehicle: other
# [3] = dose: 400.0 mg/kg/injection, schedule: Q01DX009 (ip), vehicle: saline
# [4] = dose: 100.0 mg/kg/injection, schedule: Q01DX009 (ip), vehicle: Klucel (hydroxypropylcellulose) (HPC)
# [5] = dose: 200.0 mg/kg/injection, schedule: Q01DX009 (ip), vehicle: Klucel (hydroxypropylcellulose) (HPC)
# [6] = dose: 400.0 mg/kg/injection, schedule: Q01DX009 (ip), vehicle: Klucel (hydroxypropylcellulose) (HPC)
# [7] = dose: 200.0 mg/kg/injection, schedule: Q04DX003 (ip), vehicle: Klucel (hydroxypropylcellulose) (HPC)
# [8] = dose: 200.0 mg/kg/injection, schedule: Q04DX003 (ip), vehicle: saline
# [9] = dose: 400.0 mg/kg/injection, schedule: Q04DX003 (ip), vehicle: saline
# [10] = dose: 150.0 mg/kg/injection, schedule: Q01DX001 (ip), vehicle: saline
smiles,measurement,setting,value
C=CC1=CC(=O)OC1=O,survivor count,"dose: 9.37 mg/kg/injection, schedule: Q01DX001 (ip), vehicle: saline",2 of 6
same,survivor count,"dose: 18.75 mg/kg/injection, schedule: Q01DX001 (ip), vehicle: saline",2 of 6
same,survivor count,"dose: 20.0 mg/kg/injection, schedule: Q01DX001 (ip), vehicle: saline",2 of 6
same,survivor count,[1],0 of 6
same,survivor count,"dose: 40.0 mg/kg/injection, schedule: Q01DX001 (ip), vehicle: saline",2 of 6
O=[N+]([O-])c1cc(S(=O)(=O)F)ccc1O,survivor count,"dose: 100.0 mg/kg/injection, schedule: Q01DX001 (ip), vehicle: other",1 of 4
same,survivor count,"dose: 200.0 mg/kg/injection, schedule: Q01DX001 (ip), vehicle: other",0 of 4
same,survivor count,[2],0 of 4
CCCN=C(N)C(N)=NCCC,survivor count,[3],1 of 6
NCCN1Cc2ccccc2CCc2ccccc2C1,survivor count,[4],2 of 6
same,survivor count,[5],0 of 6
same,survivor count,[6],0 of 6
CC(C)CN(C)N=Nc1ccc(C(N)=O)cc1,survivor count,[2],1 of 4
Clc1nnc(Cl)c(Cl)c1Cl,survivor count,"dose: 2.5 mg/kg/injection, schedule: Q04DX003 (ip), vehicle: acetone",3 of 6
same,survivor count,"dose: 5.0 mg/kg/injection, schedule: Q01DX001 (ip), vehicle: saline",2 of 6
same,survivor count,"dose: 10.0 mg/kg/injection, schedule: Q01DX001 (ip), vehicle: saline",1 of 6
same,survivor count,"dose: 16.0 mg/kg/injection, schedule: Q01DX015 (ip), vehicle: carboxymethylcellulose (CMC)",2 of 6
same,survivor count,"dose: 32.0 mg/kg/injection, schedule: Q01DX015 (ip), vehicle: carboxymethylcellulose (CMC)",0 of 6
NC1CCC(CC2CCCC2)CC1 (stereo unspecified),survivor count,[7],0 of 6
same,survivor count,"dose: 400.0 mg/kg/injection, schedule: Q04DX003 (ip), vehicle: Klucel (hydroxypropylcellulose) (HPC)",0 of 6
O=C(O)c1ccc([N+](=O)[O-])cc1F,survivor count,"dose: 400.0 mg/kg/injection, schedule: Q01DX001 (ip), vehicle: carboxymethylcellulose (CMC)",2 of 6
same,survivor count,"dose: 400.0 mg/kg/injection, schedule: Q01DX009 (ip), vehicle: carboxymethylcellulose (CMC)",2 of 3
same,survivor count,"dose: 400.0 mg/kg/injection, schedule: Q04DX003 (ip), vehicle: carboxymethylcellulose (CMC)",6 of 6
CC(=O)Nc1ccc2c(Nc3ccc(NS(C)(=O)=O)cc3)c3ccccc3nc2c1,T/C,"dose: 0.2 mg/kg/injection, schedule: Q01DX009 (ip), vehicle: Klucel (hydroxypropylcellulose) (HPC)",132 % of control
same,T/C,"dose: 0.4 mg/kg/injection, schedule: Q01DX009 (ip), vehicle: Klucel (hydroxypropylcellulose) (HPC)",145 % of control
same,T/C,"dose: 1.6 mg/kg/injection, schedule: Q01DX009 (ip), vehicle: saline with Tween-80",128 % of control
same,T/C,"dose: 2.4 mg/kg/injection, schedule: Q01DX009 (ip), vehicle: saline with Tween-80",147 % of control [5 of 6 alive]
same,T/C,"dose: 3.0 mg/kg/injection, schedule: Q01DX009 (sc), vehicle: saline",142 % of control
same,T/C,"dose: 3.6 mg/kg/injection, schedule: Q01DX009 (ip), vehicle: saline with Tween-80",139 % of control
same,T/C,"dose: 6.25 mg/kg/injection, schedule: Q01DX009 (ip), vehicle: saline with Tween-80",136 % of control
same,T/C,"dose: 6.25 mg/kg/injection, schedule: Q01DX009 (sc), vehicle: saline",138 % of control
same,T/C,"dose: 12.5 mg/kg/injection, schedule: Q01DX009 (ip), vehicle: Klucel (hydroxypropylcellulose) (HPC)",127 % of control
same,survivor count,"dose: 25.0 mg/kg/injection, schedule: Q01DX009 (ip), vehicle: saline with Tween-80",6 of 6
same,survivor count,"dose: 25.0 mg/kg/injection, schedule: Q01DX009 (sc), vehicle: saline",10 of 10
same,survivor count,"dose: 50.0 mg/kg/injection, schedule: Q01DX009 (ip), vehicle: saline with Tween-80",6 of 6
same,survivor count,"dose: 100.0 mg/kg/injection, schedule: Q01DX009 (ip), vehicle: saline with Tween-80",6 of 6
same,survivor count,"dose: 200.0 mg/kg/injection, schedule: Q01DX009 (ip), vehicle: saline with Tween-80",5 of 6
Cc1nc(Cl)c(Cl)[nH]1,survivor count,"dose: 400.0 mg/kg/injection, schedule: Q01DX009 (ip), vehicle: saline with Tween-80",0 of 6
CCCCCOC(=O)C(C)(O)C(Cl)c1ccccc1 (stereo unspecified),T/C,"dose: 400.0 mg/kg/injection, schedule: Q04DX002 (ip), vehicle: saline",137 % of control
ClC(Cl)(Cl)c1nccnc1Br,survivor count,[4],3 of 3
same,survivor count,[5],2 of 3
CCCCN(CCCC)CCCC#N,survivor count,[8],6 of 6
same,survivor count,[9],0 of 6
NC1CCCCC1.[O]=[Cr](=[O])([OH])[OH],survivor count,"dose: 50.0 mg/kg/injection, schedule: Q01DX009 (ip), vehicle: saline sonified",3 of 6
same,survivor count,"dose: 100.0 mg/kg/injection, schedule: Q04DX003 (ip), vehicle: Klucel (hydroxypropylcellulose) (HPC)",4 of 6
same,survivor count,[10],0 of 6
same,survivor count,[7],0 of 6
same,survivor count,"dose: 300.0 mg/kg/injection, schedule: Q01DX001 (ip), vehicle: saline",0 of 6
CCC(C(=O)Nc1ccncc1)c1ccccc1 (stereo unspecified),survivor count,[1],0 of 6
same,survivor count,"dose: 75.0 mg/kg/injection, schedule: Q01DX001 (ip), vehicle: saline",0 of 6
same,survivor count,[10],0 of 6
CCC1(O)CC2CN(CCc3c([nH]c4ccccc34)C(C(=O)OC)(c3cc4c(cc3OC)N(C)C3C(O)(C(=O)NCCSSCCNC(=O)C5(O)C(O)C6(CC)C=CCN7CCC8(c9cc(C%10(C(=O)OC)CC%11CN(CCc%12c%10[nH]c%10ccccc%12%10)CC(O)(CC)C%11)c(OC)cc9N(C)C58)C76)C(O)C5(CC)C=CCN6CCC43C65)C2)C1 (stereo unspecified),T/C,"dose: 389.0 micrograms/kg/injection, schedule: Q04DX003 (ip), vehicle: saline",129 % of control
same,T/C,"dose: 648.0 micrograms/kg/injection, schedule: Q04DX003 (ip), vehicle: saline",133 % of control
same,T/C,"dose: 1080.0 micrograms/kg/injection, schedule: Q04DX003 (ip), vehicle: saline",135 % of control
same,survivor count,"dose: 5000.0 micrograms/kg/injection, schedule: Q04DX003 (ip), vehicle: saline",5 of 8
NS(=O)(=O)c1ccccc1C(=O)O,survivor count,[3],4 of 6
C[N+](C)(C)/N=C1\CCc2ccccc21,survivor count,"dose: 400.0 mg/kg/injection, schedule: Q01DX001 (ip), vehicle: saline with Tween-80",1 of 6
O=c1[nH]ncc2ccc([N+](=O)[O-])cc12,survivor count,"dose: 300.0 mg/kg/injection, schedule: Q01DX001 (ip), vehicle: other",2 of 6
C[N+](C)(C)CCOc1ccccc1Cc1ccccc1,survivor count,"dose: 6.25 mg/kg/injection, schedule: Q01DX009 (ip), vehicle: saline",2 of 6
same,survivor count,"dose: 18.0 mg/kg/injection, schedule: Q01DX009 (ip), vehicle: saline",0 of 6
same,survivor count,"dose: 25.0 mg/kg/injection, schedule: Q04DX003 (ip), vehicle: saline",4 of 6
same,survivor count,"dose: 28.0 mg/kg/injection, schedule: Q01DX009 (ip), vehicle: saline",0 of 6
same,survivor count,"dose: 40.0 mg/kg/injection, schedule: Q01DX009 (ip), vehicle: saline",0 of 6
same,survivor count,"dose: 50.0 mg/kg/injection, schedule: Q04DX003 (ip), vehicle: saline",0 of 6
same,survivor count,"dose: 100.0 mg/kg/injection, schedule: Q04DX003 (ip), vehicle: saline",0 of 6
same,survivor count,[8],0 of 6
same,survivor count,[9],0 of 6
CCCCNC(=O)Nc1cc(Cl)ccc1C,survivor count,"dose: 25.0 mg/kg/injection, schedule: Q01DX009 (ip), vehicle: Klucel (hydroxypropylcellulose) (HPC)",6 of 6
same,survivor count,"dose: 50.0 mg/kg/injection, schedule: Q01DX009 (ip), vehicle: Klucel (hydroxypropylcellulose) (HPC)",5 of 6 and 6 of 6
same,survivor count,[5],6 of 6
same,survivor count,[6],6 of 6
